One data set has as its system HepG2 cells. Conditions: ratio of IC50 and EC50, HepG2. The text has this: Experimental conditions were standardized on silybin. […]
The ratio of IC50-to-EC50 (hereafter T/A) is also indicated in this table, which gives the margin between toxic and cytoprotective concentrations.

For the next data set, the system named is HSC-T6 cells. As to the kind of experiment: Serum-driven HSC-T6 proliferation, experiment 3 (24 h, proliferating cells). Conditions: HSC-T6 experiment 3. Format: cell-based, rat. The method, then: To overcome this problem, the amount of incubation time was increased to 24 h, and cucurbitacin activity measured on starved (Exp. 2) or proliferative (Exp. 3) cells (Table 8). Cells turned quiescent when serum was not supplemented for one day (Exp. 2). Activity of a few compounds was monitored on quiescent cells, and their activity compared to the ones measured on proliferating cells (Exp. 3).
We established several experimental conditions such as 4 hours of incubation time with cucurbitacin, and 2 day cell incubation with fresh media after challenging with cucurbitacin (Exp. 1). Other experiments involved addition of cucurbitacin for 24 hours over starved cells (Exp. 2) vs. proliferating cells (Exp. 3), and one day incubation of cells with fresh media after challenge. The 4 hour incubation period with cucurbitacin triggered anti-proliferation effect. This effect, however, was hindered by a second cycle of cell proliferation during the two-day cell growth period (see silybin, E and I glucosides, and for I-nPr). […] Because of that, the challenge time was increased to 24 hours (Exp. 2 and 3).
In experiment 3, only 40% of the cells divided. The ratio of EC50 values for exp. 2 and exp. 3 varied between 3.6 and 12.7. This may indicate differential cytotoxicity of silybin and cucurbitacin analogs over quiescent and active stellate cells. In other words, compounds show higher anti-proliferative activity on active cells than on quiescent cells.

[1] abbreviates: toxic over antiproliferation concentration (IC50/EC50).

As to `CC(=O)OC(C)(C)/C=C/C(=O)[C@](C)(O)[C@H]1[C@H](O)C[C@@]2(C)[C@@H]3CC=C4[C@H](C[C@H](O)C(=O)C4(C)C)[C@]3(C)C(=O)C[C@]12C` [B, cucurbitacin B], the T/A in the data set on HepG2 cells is 2.6; in the data set on HSC-T6 cells (setting [1]), 180.

Consider `CC(C)(O)/C=C/C(=O)[C@](C)(O)[C@H]1[C@H](O)C[C@@]2(C)[C@@H]3CC=C4[C@@H](C[C@H](O)C(=O)C4(C)C)[C@]3(C)C(=O)C[C@]12C` [D, cucurbitacin D], for which the values for the T/A in the data set on HepG2 cells and with HSC-T6 cells (setting [1]) were 8.6 and 344, respectively. With `CCOC1=CC2C(=CCC3C2(C)C(=O)CC2(C)C(C(C)(O)C(=O)C=CC(C)(C)OC(C)=O)C(O)CC32C)C(C)(C)C1=O` (stereo not shown) [E-Et], in the data set on HSC-T6 cells (setting [1]), the T/A is 13. On to `CC(=O)OC(C)(C)/C=C/C(=O)[C@](C)(O)[C@H]1[C@H](O)C[C@@]2(C)[C@@H]3CC=C4[C@@H](C=C(O[C@@H]5O[C@H](CO)[C@@H](O)[C@H](O)[C@H]5O)C(=O)C4(C)C)[C@]3(C)C(=O)C[C@]12C` [E-Gluc, cucurbitacin E glucoside], for which the T/A in the data set with HepG2 cells was 5.0; in the data set with HSC-T6 cells, “Medium to high”; in the data set on HSC-T6 cells (setting [1]) it was 29. In turn, `CC(=O)OC(C)(C)C=CC(=O)C(C)(O)C1C(O)CC2(C)C3CC=C4C(C=C(OC(C)C)C(=O)C4(C)C)C3(C)C(=O)CC12C` (stereo not shown) [E-iPr] came in with a T/A with HSC-T6 cells (setting [1]) of 8. Consider `CC(C)(O)/C=C/C(=O)[C@](C)(O)[C@H]1[C@H](O)C[C@@]2(C)[C@@H]3CC=C4[C@@H](C=C(O)C(=O)C4(C)C)[C@]3(C)C(=O)C[C@]12C` [I, cucurbitacin I], for which the T/A with HepG2 cells is on record as 5.0; with HSC-T6 cells (setting [1]), 150. For the compound `CC(C)(O)/C=C/C(=O)[C@](C)(O)C1[C@H](O)C[C@@]2(C)C3CC=C4C(C=C(O[C@@H]5O[C@H](CO)[C@@H](O)[C@H](O)[C@H]5O)C(=O)C4(C)C)[C@]3(C)C(=O)C[C@]12C` (stereo partly shown) [I-Gluc, cucurbitacin I glucoside], the T/A entry in the data set with HSC-T6 cells is given as “Medium to high”; in the data set on HSC-T6 cells (setting [1]), 64. Turning to `COC1=CC2C(=CCC3C2(C)C(=O)CC2(C)C(C(C)(O)C(=O)C=CC(C)(C)O)C(O)CC32C)C(C)(C)C1=O` (stereo not shown) [I-Me], the results for the T/A with HepG2 cells, in the data set on HSC-T6 cells and with HSC-T6 cells (setting [1]) were 2.9, “Medium to high” and 62, respectively. The compound `CC(C)OC1=CC2C(=CCC3C2(C)C(=O)CC2(C)C(C(C)(O)C(=O)C=CC(C)(C)O)C(O)CC32C)C(C)(C)C1=O` (stereo not shown) [I-iPr] yielded a T/A in the data set with HSC-T6 cells (setting [1]) of 9. Turning to `CCCOC1=CC2C(=CCC3C2(C)C(=O)CC2(C)C(C(C)(O)C(=O)C=CC(C)(C)O)C(O)CC32C)C(C)(C)C1=O` (stereo not shown) [I-nPr], in the data set with HSC-T6 cells (setting [1]), the T/A amounted to 8. `CC(C)(O)/C=C/C(=O)C(C)(O)C1C(O)CC2(C)C3CC=C4C(CC(=O)C(O)C4(C)C)C3(C)C(=O)CC12C` (stereo not shown) [iso-D]: the T/A with HepG2 cells is on record as 5.8; in the data set with HSC-T6 cells (setting [1]) it was 139. Regarding Cucurbitacin E-Me ether, the T/A entry in the data set with HSC-T6 cells was “Medium to high”; in the data set with HSC-T6 cells (setting [1]), 33.

These data come from US20070049538A1, “METHODS FOR USING CUCURBITACIN COMPOUNDS” (SOUTH DAKOTA STATE UNIVERSITY, priority 2005, published 2007).
